Earlier results on 1 compound are cited in patent publication US20070027175A1, “Antineoplastic activities of ellipticine and its derivatives” (priority 2005, published 2007).

For data set [1] the following is noted: NCI in vivo screening data; cited from earlier work.
The subject of a further data set is tumor model. The following applies: 9.37 mg/kg to 75.0 mg/kg; BDF1 mice; endpoint of 60 days; cited from earlier work.

SMILES strings stand for the structures.

Consider `COc1ccc2[nH]c3c(C)c4ccncc4c(C)c3c2c1` [NSC 69187, ellipticine-9-methoxy-], for which the “dosages for animals surviving the toxicity of the compounds” value in data set [1] was 37.5 mg/kg body weight. Besides, the “animals survived the tumor model and dose toxicity” value with tumor model is “more than 90%”.
